Patent publication US20240076386A1
Numbering of substitutions follows the chain as printed. Results are given in words; binding and its absence hold for the method and conditions named. Some results given as binding are weak or reduced against the parent protein; the word gives no strength.

B1: humanized anti-E-selectin antibody 0841 (antibody, human IgG1, kappa, V domains shown)
VH: EVQLVESGGGLVQPGGSLRLSCAASGYNIRSSYMHWVRQAPGKGLEWVARIDPANGNTIYAEKFKIRFTISADNAKNSAYLQMNSLRAEDTAVYYCAMDLYSTSEYWGQGTLVTVSS
VL: DIQMTQSPSSLSASVGDRVTITCKTSQNINRYLNWYQQKPGKAPKLLIYNANSLQTGVPSRFSGSGSGTDFTLTISSLQPEDFATYFCLQDNSWPLTFGQGTKVEIKR
B2: optimized anti-E-selectin antibody 1282 (antibody, human IgG1, kappa, V domains shown)
VH: B1 VH with N28A, S32A, A61V, E62D, K63S, F64V, K65E, I66G
VL: B1 VL with N30E, N50A, N52S, T56S, S93A
B3: optimized anti-E-selectin antibody 1284 (antibody, human IgG1, kappa, V domains shown)
VH: B1 VH with N28A, S32A, A61V, K63S, F64V, K65E, I66G
VL: B1 VL with N30E, N50A, N52S, T56S, S93A
B4: optimized anti-E-selectin antibody 1444 (antibody, human IgG1, kappa, V domains shown)
VH: B1 VH with N28A, S32A, A61V, E62D, K63S, F64V, K65T, I66G
VL: B1 VL with N30E, N50A, N52S, T56S, S93A
B5: optimized anti-E-selectin antibody 1448 (antibody, human IgG1, kappa, V domains shown)
VH: B1 VH with N28A, S32A, A61V, E62D, K63S, F64V, I66E
VL: B1 VL with N30E, N50A, N52S, T56S, S93A
B6: humanized anti-E-selectin antibody 0978 (antibody, human IgG1, kappa, V domains shown)
VH: B1 VH with A61V, E62D, K63S, F64V, I66G
VL: B1 VL with N50A, N52S, T56S

Target: T1, human E-selectin coated on the plate of the competition binding ELISA (human) (UniProt P16581)
T1 sequence (looked up): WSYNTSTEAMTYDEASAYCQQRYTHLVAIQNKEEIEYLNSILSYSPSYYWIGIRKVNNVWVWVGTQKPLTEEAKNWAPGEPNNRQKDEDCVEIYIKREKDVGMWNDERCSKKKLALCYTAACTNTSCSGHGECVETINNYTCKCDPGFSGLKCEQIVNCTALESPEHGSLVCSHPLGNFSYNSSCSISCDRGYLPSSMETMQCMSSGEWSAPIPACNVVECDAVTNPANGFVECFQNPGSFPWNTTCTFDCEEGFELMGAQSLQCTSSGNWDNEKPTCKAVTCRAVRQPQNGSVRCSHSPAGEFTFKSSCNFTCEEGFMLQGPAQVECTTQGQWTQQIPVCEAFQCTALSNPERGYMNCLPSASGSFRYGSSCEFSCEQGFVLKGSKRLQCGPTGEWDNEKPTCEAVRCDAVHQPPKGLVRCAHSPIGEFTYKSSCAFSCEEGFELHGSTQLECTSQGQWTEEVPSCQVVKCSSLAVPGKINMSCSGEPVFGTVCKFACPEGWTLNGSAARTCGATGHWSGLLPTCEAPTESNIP
Assay: competition binding ELISA against biotinylated 0164

binding, binds:
B1
B2
B3
B4
B5
B6

Target: T1, human E-selectin coated on the plate of the competition binding ELISA (human)
Assay: competition ELISA (Biotin-164 competitive ELISA) on plate-coated human E-selectin; competitor: biotinylated antibody 0164, OD450; forced degradation samples T0, T2, T4 weeks at 40 C in Tris, His or Glu buffer

binding, binds:
B2
B3
B4
B5

Target: T1, human E-selectin coated on the plate of the competition binding ELISA (human)
Assay: competition ELISA on plate-coated human E-selectin; competitor: biotinylated antibody 0164, streptavidin-HRP, OD450; samples stored 0, 2, 4 weeks at 40 C in Tris, His or Glu buffer

binding, binds:
B1
